PubChem BioAssay AID901 (National Center for Advancing Translational Sciences (NCATS), 2007)
This is one part of the list. The main result of the screen is listed elsewhere. These columns were measured beside it and carry no call. Most of these compounds were active or inconclusive in the main read-out, so they are no random draw. Words in brackets tell the shape of the fitted curve; partial curves, single points and poor fits give uncertain potencies.

Assay: qHTS Assay for Identifying the Cell-Membrane Permeable IMPase Inhibitors
Conditions: CHO-M1 cells, IP1 accumulation, HTRF TR-FRET ratio; measured here: donor channel 620 nm AC50
With `COC(=O)Cn1c(=NC(=O)C(C)C)sc2c(C)cc(C)cc21` the AC50 was 12.6 µM [falling, partial curve].
For `CC(=O)Oc1ccc2oc(/C=C/N(C)C)c([N+](=O)[O-])c2c1`, the AC50 was 15.8 µM [falling, single point].
In the case of `CC(C)n1cnc2cc(NCc3ccccn3)ccc21`, the AC50 is reported as 6.31 µM [falling, single point].
For `O=C(CCSc1nnc2ccc3ccccc3n12)Nc1ccc(F)cc1`, the AC50 was 31.6 µM [rising, single point].
For `CCOC(=O)c1sc(NC(=O)Cn2nnc3sc4c(c3c2=O)CCCC4)nc1C`, the AC50 was 0.0316 µM [rising, full curve, poor fit].
In the case of `CCCCC(CC)C(=O)Nc1ccc(Cl)cn1` (stereo not drawn), the AC50 is reported as 0.01 µM [falling, full curve].
In the case of `Cc1cc(/C=N/n2c(COc3ccccc3C)nc3ccccc3c2=O)c(O)c([N+](=O)[O-])c1`, the AC50 is reported as 0.01 µM [rising, full curve, poor fit].
In the case of `COC(=O)c1ccc2c(c1)NC(=O)C(N1CCCCC1)S2` (stereo not drawn), the AC50 is reported as 0.00501 µM [rising, full curve, poor fit].
In the case of `COc1ccc(/C=C/C(=O)OCc2cc(=O)n3c(n2)sc2ccccc23)cc1`, the AC50 is reported as 5.01 µM [rising, single point].
In the case of `Cn1nc(CC(=O)Nc2ccc3c(c2)CCC3)c2ccccc2c1=O`, the AC50 is reported as 0.0631 µM [rising, partial curve, poor fit].
For `CCCC(=O)Nc1nc2ccc(NC(=O)c3cccnc3)cc2s1`, the AC50 was 0.501 µM [rising, full curve, poor fit].
With `CCOc1ccccc1/C=N/Nc1ccccc1[N+](=O)[O-]` the AC50 was 3.98 µM [rising, single point].
For `O=C(c1ccco1)n1nc(-c2ccccc2)nc1NCc1ccccc1Cl`, the AC50 was 31.6 µM [rising, single point].
For `O=C(NCc1ccc(F)cc1)c1cc(S(=O)(=O)N2CCOCC2)ccc1F`, the AC50 was 3.16 µM [falling, partial curve, poor fit].
In the case of `O=C(NCC(=O)N(Cc1cccs1)C(C(=O)NC1CCCCC1)c1ccncc1)c1ccco1` (stereo not drawn), the AC50 is reported as 0.158 µM [rising, single point].
With `O=C(Nc1ccc(NC(=O)c2ccco2)nc1)c1ccccn1` the AC50 was 0.2 µM [rising, partial curve, poor fit].
In the case of `O=C(COC(=O)c1cccnc1SCC(=O)NCc1ccccc1)NCc1ccccc1`, the AC50 is reported as 31.6 µM [rising, partial curve].
With `COc1cccc(-n2c(=O)c3cc(OC)c(OC)cc3n(CC(=O)Nc3ccccc3)c2=O)c1` the AC50 was 0.0562 µM [falling, full curve, poor fit].
For `COc1cc2c(cc1NC(=O)COc1ccc(Br)cc1C)oc1ccccc12`, the AC50 was 0.00708 µM [rising, full curve].
For `CONC(=O)C1CCN(C(=O)OCc2ccccc2)CC1`, the AC50 was 0.562 µM [falling, full curve, poor fit].
In the case of `CCOc1ccc(NC(=O)CSc2ncnc3c2sc2ccccc23)cc1`, the AC50 is reported as 15.8 µM [rising, partial curve].
In the case of `COc1cccc2cc(C(=O)C3=C(O)C(=O)N(Cc4ccco4)C3c3cccnc3)oc12` (stereo not drawn), the AC50 is reported as 12.6 µM [rising, partial curve].
With `CCOC(=O)c1c(C)[nH]c(C)c1C(=O)COC(=O)c1cccc(S(=O)(=O)N(CC)CC)c1` the AC50 was 0.01 µM [rising, full curve, poor fit].
For `NNc1nc(NCc2ccccc2)nc(N2CCOCC2)n1`, the AC50 was 31.6 µM [falling, single point].
In the case of `COc1ccc(OC)c2sc(NC(=O)c3ccc(S(=O)(=O)N4CCOCC4)cc3)nc12`, the AC50 is reported as 5.62 µM [falling, full curve, poor fit].
In the case of `CCOC(=O)c1sc(N2C(=O)c3oc4ccccc4c(=O)c3C2c2ccc(C(C)(C)C)cc2)nc1C` (stereo not drawn), the AC50 is reported as 35.5 µM [falling, single point].
For `COCC(=O)N(C)c1nnc(-c2ccc([N+](=O)[O-])cc2)s1`, the AC50 was 31.6 µM [falling, single point].
With `COc1cc(-c2nnc(COc3ccc4cc(Br)ccc4c3)o2)cc(OC)c1OC` the AC50 was 15.8 µM [rising, single point].
For `O=C1c2cccc3c([N+](=O)[O-])ccc(c23)C(=O)N1c1ccccn1`, the AC50 was 12.6 µM [falling, partial curve].
In the case of `CS(=O)(=O)N1CCN(C(=O)c2ccc(F)cc2)CC1`, the AC50 is reported as 0.158 µM [falling, full curve, poor fit].
With `COc1ccc(/C=C2\CCn3c2nc2cc(C(=O)O)ccc2c3=O)cc1O` the AC50 was 20 µM [falling, partial curve, poor fit].
In the case of `CCOC(=O)c1nn(-c2ccccc2C)c2nc(-c3ccc(C)cc3)c(C#N)c(=O)n12`, the AC50 is reported as 31.6 µM [rising, single point].
In the case of `CCOC(=O)C(NC(=O)c1ccccc1)(Nc1nnc(C)s1)C(F)(F)F` (stereo not drawn), the AC50 is reported as 35.5 µM [falling, single point].
With `CC(=O)O[C@]1(C(C)=O)CC[C@@H]2[C@@H]3C=C(Cl)C4=CC(=O)[C@H]5C[C@@H]5[C@]4(C)[C@H]3CC[C@]21C` the AC50 was 2.51 µM [falling, partial curve].
In the case of `Cc1ccc2oc(=O)c3cnn(CC(=O)N4CCCc5ccccc54)c3c2c1`, the AC50 is reported as 35.5 µM [rising, single point].
For `CN(C(=O)c1ccccc1)c1ccc(OCC(=O)NC2CCS(=O)(=O)C2)cc1` (stereo not drawn), the AC50 was 0.398 µM [rising, full curve, poor fit].
With `Cc1ccc(-c2cc(C(=O)NCc3cn(C)nc3C)c3cc(Br)ccc3n2)cc1` the AC50 was 14.1 µM [rising, partial curve, poor fit].
For `Cc1cc(NC(=O)CC(C)(C)C)nc2c1c(=O)oc1ccccc12`, the AC50 was 0.00501 µM [falling, full curve, poor fit].
With `O=C(Nc1ccc(Cl)cc1C(=O)N1CCOCC1)c1ccco1` the AC50 was 11.2 µM [falling, partial curve, poor fit].
With `Cc1cc(C)c(C)c(S(=O)(=O)N2CCC(C(=O)OCC(=O)N3c4ccccc4NC(=O)C3(C)C)CC2)c1C` the AC50 was 10 µM [falling, partial curve].
For `O=C(/C=C/c1ccc(Cl)cc1Cl)NCc1ccncc1`, the AC50 was 10 µM [falling, partial curve, poor fit].
For `O=C(CSc1nc2ccccc2o1)NCCOc1ccccc1`, the AC50 was 0.0251 µM [rising, full curve, poor fit].
In the case of `CSc1nnc2c(n1)c(C)nn2-c1cccc(C)c1`, the AC50 is reported as 0.126 µM [rising, single point].
For `CCCN(CCC)C(=O)Cn1c(=O)n(CCCCCC(=O)Nc2ccccc2)c(=O)c2sccc21`, the AC50 was 17.8 µM [rising, partial curve].
For `O=C1c2ccccc2C(=O)N1Cc1nn2c(-c3ccc(Cl)cc3)nnc2s1`, the AC50 was 31.6 µM [rising, single point].
For `CCSc1nc(N)c(C#N)c(-c2ccco2)c1C#N`, the AC50 was 1 µM [falling, full curve].
In the case of `COc1ccc(CC(=O)Nc2nnc(C)s2)cc1`, the AC50 is reported as 1 µM [falling, full curve, poor fit].
In the case of `COc1nc(N)c(S(=O)(=O)c2ccc(C)cc2)cc1C#N`, the AC50 is reported as 3.16 µM [rising, single point].
With `CCC(C)(C)NC(=O)C(c1cccnc1)N(CCOC)C(=O)Cn1nnc2ccccc21` (stereo not drawn) the AC50 was 10 µM [falling, partial curve].
In the case of `O=C(c1ccco1)N1CCN(C(c2ccccc2F)c2nnnn2Cc2cccs2)CC1` (stereo not drawn), the AC50 is reported as 15.8 µM [rising, single point].
In the case of `CCOc1ccc(CCNC(=O)c2cc3cc4cc(OC)ccc4nc3s2)cc1OCC`, the AC50 is reported as 3.98 µM [rising, single point].
With `CC(C)(C)c1ccc(S(=O)(=O)NCCc2ccncc2)cc1` the AC50 was 10 µM [falling, single point].
With `CCOC(=O)c1c(Nc2ccc(OC)cc2)nnc(-c2ccccc2)c1-c1ccccc1` the AC50 was 1.12 µM [falling, full curve, poor fit].
With `CCOc1ccc(NC(=O)COc2ccc(S(=O)(=O)NC3CCCCC3)cc2)cc1` the AC50 was 0.1 µM [falling, full curve, poor fit].
In the case of `CC(C)c1ccc(OCC(=O)N(Cc2cccs2)C2CCS(=O)(=O)C2)cc1` (stereo not drawn), the AC50 is reported as 0.00891 µM [rising, full curve, poor fit].
In the case of `O=C1CCCC2=C1C(c1ccc3c(c1)OCO3)c1c([nH]n(-c3ccccc3)c1=O)N2` (stereo not drawn), the AC50 is reported as 12.6 µM [falling, partial curve].
In the case of `CCc1nn2c(=O)c(S(=O)(=O)Nc3ccc(Cl)cc3)c(C)nc2s1`, the AC50 is reported as 1.58 µM [falling, partial curve, poor fit].
With `CCC(CC)c1nnc(NC(=O)CCN2C(=O)c3ccccc3C2=O)s1` the AC50 was 3.98 µM [rising, partial curve].
In the case of `Cc1ccc(S(=O)(=O)C(C#N)c2nc3ccccc3nc2N2CCCC2)cc1C` (stereo not drawn), the AC50 is reported as 0.0316 µM [rising, full curve, poor fit].
With `COc1ccc([N+](=O)[O-])cc1NC(=O)C(C)OC(=O)C1c2ccccc2Oc2ccccc21` (stereo not drawn) the AC50 was 0.0126 µM [rising, full curve, poor fit].
For `CCOC(=O)c1oc2ccccc2c1NC(=O)c1ccc(S(=O)(=O)N2CCCC2)cc1`, the AC50 was 0.0126 µM [rising, full curve, poor fit].
In the case of `CC(=O)N1C(=O)N(C)C2C1N(C(C)=O)C(=O)N2C` (stereo not drawn), the AC50 is reported as 0.631 µM [falling, full curve].
In the case of `Cc1ccc(S(=O)(=O)N2CCOCC2)cc1C(=O)NCc1cccnc1`, the AC50 is reported as 0.631 µM [falling, full curve, poor fit].
